In PMC11573613:
No constants are given. Whether binding was seen depends on the method and setting. Binding seen in cells or lysates may run through a third protein. Here binding means that the protein was enriched with, or labelled near, the bait; the list need not be complete.

By UniProt entry, the sequences of proteins in these tests, tags left out. Where a name states a change or a piece, a line headed by the entry shows the natural chain unless it says otherwise. Residues count along the entry.
UniProt Q49AH0, residues 25-187: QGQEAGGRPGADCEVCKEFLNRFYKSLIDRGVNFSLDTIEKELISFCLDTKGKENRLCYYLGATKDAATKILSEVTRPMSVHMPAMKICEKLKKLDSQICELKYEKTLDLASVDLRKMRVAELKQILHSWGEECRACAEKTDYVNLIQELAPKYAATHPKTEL
UniProt P61224: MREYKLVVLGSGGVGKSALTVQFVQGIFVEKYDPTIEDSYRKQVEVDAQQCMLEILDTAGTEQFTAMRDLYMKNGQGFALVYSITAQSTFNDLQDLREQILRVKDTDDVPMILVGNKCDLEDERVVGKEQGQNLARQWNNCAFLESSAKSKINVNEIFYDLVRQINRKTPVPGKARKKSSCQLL
UniProt P06396, residues 28-782: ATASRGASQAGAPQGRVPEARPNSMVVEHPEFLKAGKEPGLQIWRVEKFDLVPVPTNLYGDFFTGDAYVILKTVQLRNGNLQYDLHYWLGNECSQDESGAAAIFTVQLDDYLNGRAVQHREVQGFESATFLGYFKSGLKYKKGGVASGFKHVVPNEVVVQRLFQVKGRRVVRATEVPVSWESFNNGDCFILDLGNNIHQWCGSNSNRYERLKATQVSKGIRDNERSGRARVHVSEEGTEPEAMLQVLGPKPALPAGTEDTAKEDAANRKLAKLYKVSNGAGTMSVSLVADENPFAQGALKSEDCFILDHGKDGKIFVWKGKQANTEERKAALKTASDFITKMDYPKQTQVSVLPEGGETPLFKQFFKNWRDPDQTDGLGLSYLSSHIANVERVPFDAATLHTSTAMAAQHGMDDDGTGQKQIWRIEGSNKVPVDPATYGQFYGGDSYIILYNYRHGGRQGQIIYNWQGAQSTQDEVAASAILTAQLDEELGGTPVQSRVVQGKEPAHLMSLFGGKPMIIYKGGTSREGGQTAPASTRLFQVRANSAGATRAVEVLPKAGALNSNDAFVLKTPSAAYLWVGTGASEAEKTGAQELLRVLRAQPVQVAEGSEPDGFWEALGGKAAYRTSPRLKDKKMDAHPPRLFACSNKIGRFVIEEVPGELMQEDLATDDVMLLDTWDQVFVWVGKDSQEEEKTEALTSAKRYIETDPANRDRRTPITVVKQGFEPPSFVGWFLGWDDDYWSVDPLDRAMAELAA
UniProt Q13418: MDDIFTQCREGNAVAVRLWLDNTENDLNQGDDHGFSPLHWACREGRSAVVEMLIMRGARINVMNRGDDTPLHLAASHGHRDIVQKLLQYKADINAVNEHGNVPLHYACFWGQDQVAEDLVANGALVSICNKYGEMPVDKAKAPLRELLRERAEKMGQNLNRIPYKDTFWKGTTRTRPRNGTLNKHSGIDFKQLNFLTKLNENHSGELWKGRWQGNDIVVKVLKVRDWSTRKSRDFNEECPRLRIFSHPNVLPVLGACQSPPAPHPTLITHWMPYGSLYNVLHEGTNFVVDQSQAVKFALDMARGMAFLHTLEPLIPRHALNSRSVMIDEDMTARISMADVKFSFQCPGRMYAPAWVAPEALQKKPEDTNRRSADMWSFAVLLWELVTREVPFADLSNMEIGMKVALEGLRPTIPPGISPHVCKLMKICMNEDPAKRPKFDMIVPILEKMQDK
UniProt O14950: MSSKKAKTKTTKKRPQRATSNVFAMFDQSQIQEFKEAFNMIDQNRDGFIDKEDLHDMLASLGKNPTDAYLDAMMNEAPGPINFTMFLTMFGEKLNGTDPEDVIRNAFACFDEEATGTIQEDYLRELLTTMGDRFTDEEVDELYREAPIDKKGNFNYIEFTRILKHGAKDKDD
UniProt P01127: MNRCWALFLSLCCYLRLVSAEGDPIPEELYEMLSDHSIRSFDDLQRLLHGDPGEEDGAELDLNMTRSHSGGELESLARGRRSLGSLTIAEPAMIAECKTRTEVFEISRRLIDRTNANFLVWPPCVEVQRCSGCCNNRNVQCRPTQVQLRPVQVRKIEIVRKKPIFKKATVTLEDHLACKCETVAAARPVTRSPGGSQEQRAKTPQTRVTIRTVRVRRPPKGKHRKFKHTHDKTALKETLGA
UniProt Q9Y490: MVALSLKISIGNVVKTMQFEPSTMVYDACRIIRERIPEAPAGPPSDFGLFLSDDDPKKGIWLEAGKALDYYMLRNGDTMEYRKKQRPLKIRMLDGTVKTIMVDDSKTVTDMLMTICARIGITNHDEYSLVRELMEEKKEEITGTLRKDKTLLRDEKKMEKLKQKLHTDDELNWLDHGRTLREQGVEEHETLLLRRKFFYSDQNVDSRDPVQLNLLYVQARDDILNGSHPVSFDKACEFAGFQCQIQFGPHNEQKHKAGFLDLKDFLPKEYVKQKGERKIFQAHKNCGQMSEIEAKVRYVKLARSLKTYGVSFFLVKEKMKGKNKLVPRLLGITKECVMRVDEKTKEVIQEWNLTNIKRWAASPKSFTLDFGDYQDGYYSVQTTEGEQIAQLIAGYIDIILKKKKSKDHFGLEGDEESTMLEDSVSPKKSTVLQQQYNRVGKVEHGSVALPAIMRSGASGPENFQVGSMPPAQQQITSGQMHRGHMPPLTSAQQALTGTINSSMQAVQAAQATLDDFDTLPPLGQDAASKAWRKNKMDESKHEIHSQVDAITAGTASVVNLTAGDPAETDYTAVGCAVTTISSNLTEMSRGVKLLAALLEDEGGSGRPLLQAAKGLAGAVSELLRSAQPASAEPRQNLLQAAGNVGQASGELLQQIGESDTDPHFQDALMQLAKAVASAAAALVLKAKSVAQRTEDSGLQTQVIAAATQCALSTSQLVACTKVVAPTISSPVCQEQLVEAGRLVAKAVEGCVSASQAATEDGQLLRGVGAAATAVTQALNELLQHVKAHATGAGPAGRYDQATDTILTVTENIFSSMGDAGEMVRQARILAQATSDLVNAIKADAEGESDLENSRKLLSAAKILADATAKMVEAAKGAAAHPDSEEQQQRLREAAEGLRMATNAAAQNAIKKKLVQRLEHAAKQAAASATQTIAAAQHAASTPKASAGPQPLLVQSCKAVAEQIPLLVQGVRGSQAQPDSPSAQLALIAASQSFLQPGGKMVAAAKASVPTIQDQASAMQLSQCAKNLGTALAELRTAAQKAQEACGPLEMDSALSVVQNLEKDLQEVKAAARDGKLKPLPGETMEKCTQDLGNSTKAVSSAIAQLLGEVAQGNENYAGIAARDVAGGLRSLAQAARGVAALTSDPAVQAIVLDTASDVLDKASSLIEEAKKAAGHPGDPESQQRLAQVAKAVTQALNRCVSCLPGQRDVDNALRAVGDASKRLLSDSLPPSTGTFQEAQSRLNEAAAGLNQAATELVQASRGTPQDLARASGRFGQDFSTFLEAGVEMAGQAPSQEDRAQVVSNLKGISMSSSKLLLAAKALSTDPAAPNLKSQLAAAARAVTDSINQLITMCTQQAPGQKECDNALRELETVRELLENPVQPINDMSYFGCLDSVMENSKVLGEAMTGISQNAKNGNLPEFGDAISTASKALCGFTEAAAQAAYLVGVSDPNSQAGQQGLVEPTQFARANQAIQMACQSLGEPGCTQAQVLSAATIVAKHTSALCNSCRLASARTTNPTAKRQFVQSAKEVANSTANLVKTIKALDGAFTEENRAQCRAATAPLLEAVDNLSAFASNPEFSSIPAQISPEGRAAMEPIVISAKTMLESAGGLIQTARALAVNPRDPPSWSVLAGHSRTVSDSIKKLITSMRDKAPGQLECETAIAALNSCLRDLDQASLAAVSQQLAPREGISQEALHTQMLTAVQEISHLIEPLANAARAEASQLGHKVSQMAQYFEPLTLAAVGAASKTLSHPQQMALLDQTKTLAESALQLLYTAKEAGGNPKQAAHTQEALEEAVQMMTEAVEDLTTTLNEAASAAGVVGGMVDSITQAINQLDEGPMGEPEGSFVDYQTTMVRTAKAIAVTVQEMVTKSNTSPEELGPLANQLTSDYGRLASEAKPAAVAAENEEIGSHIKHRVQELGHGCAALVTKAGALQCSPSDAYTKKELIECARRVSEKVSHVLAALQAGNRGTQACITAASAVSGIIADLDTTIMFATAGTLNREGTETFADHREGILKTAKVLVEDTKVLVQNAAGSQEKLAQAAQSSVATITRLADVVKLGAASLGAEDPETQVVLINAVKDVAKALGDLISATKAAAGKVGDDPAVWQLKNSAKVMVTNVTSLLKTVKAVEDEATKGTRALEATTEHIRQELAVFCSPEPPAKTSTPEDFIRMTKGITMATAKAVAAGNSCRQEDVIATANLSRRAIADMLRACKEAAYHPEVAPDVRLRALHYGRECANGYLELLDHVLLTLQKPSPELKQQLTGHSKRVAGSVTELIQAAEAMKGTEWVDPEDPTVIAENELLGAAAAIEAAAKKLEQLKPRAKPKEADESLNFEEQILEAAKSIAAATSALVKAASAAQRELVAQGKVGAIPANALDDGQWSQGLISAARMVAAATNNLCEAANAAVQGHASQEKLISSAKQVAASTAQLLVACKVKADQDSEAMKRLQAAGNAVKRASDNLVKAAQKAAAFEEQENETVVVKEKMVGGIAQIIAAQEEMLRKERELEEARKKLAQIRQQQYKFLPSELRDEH
UniProt P50552: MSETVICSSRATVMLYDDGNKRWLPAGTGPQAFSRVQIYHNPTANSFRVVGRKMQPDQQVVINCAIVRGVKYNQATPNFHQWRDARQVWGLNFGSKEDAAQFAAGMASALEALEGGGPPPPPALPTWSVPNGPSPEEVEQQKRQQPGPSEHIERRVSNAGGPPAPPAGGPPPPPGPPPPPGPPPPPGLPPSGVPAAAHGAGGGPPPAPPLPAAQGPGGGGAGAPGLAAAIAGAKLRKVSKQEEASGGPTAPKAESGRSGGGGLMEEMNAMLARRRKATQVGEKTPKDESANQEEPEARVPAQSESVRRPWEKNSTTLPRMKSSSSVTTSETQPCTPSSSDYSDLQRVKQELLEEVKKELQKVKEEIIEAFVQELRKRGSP

What follows are substances tested against Recombinant human cerebral dopamine neurotrophic factor (CDNF) (human) (UniProt Q49AH0) (assay: affinity purification with mass spectrometry; extracellularly applied CDNF immunoprecipitated with 4.8 μg rabbit monoclonal anti-human CDNF antibody from extracts of AA- and CDNF-treated human washed platelets; LC-MS of the precipitate).

binding, binds:
Ras-related protein 1b (Rap1b) (from UniProt P61224 1-184), gelsolin (GSN) (from UniProt P06396 28-782), integrin-linked kinase (ILK) (from UniProt Q13418 1-452), myosin regulatory light chain 12B (MYL12B) (from UniProt O14950 1-172), platelet-derived growth factor subunit B (PDGF-B) (from UniProt P01127), talin 1 (TLN1) (from UniProt Q9Y490 1-2541), vasodilator-stimulated phosphoprotein (VASP) (from UniProt P50552 1-380)
